# Results published in PubChem BioAssay AID504834 (National Center for Advancing Translational Sciences (NCATS), 2011).
# In all, about 320,000 compounds went through this assay and about 22,000 (6.9%) were called active. Inconclusive means that the source gave no clear call. Such entries were picked first, then a sample of the others. The call rests on the fitted dose curve; in most records, active means well fitted inhibition curve with a large enough effect; inconclusive means small, poorly fitted or top-dose-only effect, or another doubt; inactive means no such curve, though single readings can be large or run the other way. Where the call is inconclusive, the potency comes from a doubtful curve fit.
# Experiment: Primary qHTS for delayed death inhibitors of the malarial parasite plastid, 96 hour incubation
# Conditions: P. falciparum luciferase reporter growth; series mostly up to 28.7 µM
# Method in brief: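 Delayed-death screen, second-generation endpoint: infected erythrocytes, 2% hematocrit, 0.05% parasitemia final; 96 hours at 37 C, 5% CO2; luciferase detection reagent; luminescence decrease equals reduced growth.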
# Potency means the concentration at half of the fitted maximal effect.
row,SMILES,Potency
1,CC(CCC(=O)O)C1CCC2C3C(=O)C[C@@H]4CC(=O)CC[C@@]4(C)C3CC(=O)[C@]12C (stereo not given in full),"inconclusive: 6.75 µM [inhibitor, partial curve]"
2,COc1cc(C(=O)NCCSc2ccc(F)cc2)cc(OC)c1OC,"inconclusive: 18.5 µM [inhibitor, single point]"
3,O=C(OC(c1ccccc1)c1nccc2ccccc12)c1cccc([N+](=O)[O-])c1 (stereo not given),inactive
4,O=C(CCc1ccccc1)Nc1cc(Cl)ccc1O,"inconclusive: 14.7 µM [inhibitor, partial curve, poor fit]"
5,CN(CCc1ccccn1)C1CC(=O)N(c2ccc(Cl)cc2)C1=O (stereo not given),"inconclusive: 3.29 µM [inhibitor, partial curve, poor fit]"
6,CCN(CC(=O)NCc1ccc(F)cc1)C(=O)/C=C/c1ccc(S(=O)(=O)N(CC)CC)cc1,inactive
7,COc1cccc(-c2ccc(NC(=O)C3CCCN(Cc4cnc(C)n4C)C3)cc2)c1 (stereo not given),inactive
8,COc1cc(NC(=O)Cc2c(C(=O)O)n(C)c3ccccc23)cc(OC)c1OC,inactive
9,CNC(=O)c1cc2c(=O)n3cccc(C)c3nc2n(C(C)C)c1=N,"inconclusive: 14.7 µM [inhibitor, partial curve]"
10,Cc1nnc(NC(=O)c2ccc3ccccc3c2)o1,"inconclusive: 18.5 µM [inhibitor, single point]"
11,COc1ccc(Cl)cc1C(=O)NCCCSc1ccccc1,"inconclusive: 11.7 µM [inhibitor, single point]"
12,CCN1C(=O)[C@H]2[C@@H](c3ccc(-c4ccccc4)cc3)N[C@@](Cc3ccccc3)(C(=O)OC)[C@H]2C1=O,"inconclusive: 9.28 µM [inhibitor, single point]"
13,CNC(=O)c1oc(-c2ccc(Cl)cc2)nc1C,inactive
14,COc1ccc(S(=O)(=O)NCC2CCCN(Cc3ccc(O)cc3)C2)cc1 (stereo not given),inactive
15,Cc1ccc(C)c(N2CN(Cc3cccnc3)CNC2=S)c1,inactive
16,C=CCn1c(=O)c2ccccc2n2c(SCC(=O)NCCc3ccccc3)nnc12,"inconclusive: 4.65 µM [inhibitor, partial curve]"
17,Cc1ccc(S(=O)(=O)N2CCN(C(=O)CCc3nc4ccccc4c(=O)[nH]3)CC2)c(C)c1,active: 11.7 µM
18,CC(=O)Nc1ccc(S(=O)(=O)N2C(C)CCCC2C)cc1 (stereo not given),inactive
19,O=C(c1ccc(CNS(=O)(=O)c2ccccc2)cc1)N1CCC2(CC1)OCCO2,active: 8.28 µM
20,Cc1cc2c(c(=O)n1C)C(Cc1ccccc1)C(C#N)=C(N)O2 (stereo not given),"inconclusive: 4.15 µM [inhibitor, partial curve, poor fit]"
21,COc1ccc(CCN2C(=O)CC(N3CCN(C/C=C/c4ccccc4)CC3)C2=O)cc1OC (stereo not given),"inconclusive: 4.15 µM [inhibitor, partial curve]"
22,O=C(c1cccc(S(=O)(=O)N2CCCCC2)c1)N1CCN(Cc2ccccc2)CC1,"inconclusive: 10.4 µM [inhibitor, single point]"
23,O=C(Nc1ccccc1)c1ccc(S(=O)(=O)N2CCC(C(=O)O)CC2)cc1,inactive
24,CCOc1ccc(CCNC(=O)C2CC(=O)N(CCc3ccccc3)C2)cc1OCC (stereo not given),"inconclusive: 9.28 µM [inhibitor, single point]"

# Ordered by number of heavy atoms (largest number first): three of the compounds above
row,SMILES,Potency
16,C=CCn1c(=O)c2ccccc2n2c(SCC(=O)NCCc3ccccc3)nnc12,"inconclusive: 4.65 µM [inhibitor, partial curve]"
5,CN(CCc1ccccn1)C1CC(=O)N(c2ccc(Cl)cc2)C1=O (stereo not given),"inconclusive: 3.29 µM [inhibitor, partial curve, poor fit]"
4,O=C(CCc1ccccc1)Nc1cc(Cl)ccc1O,"inconclusive: 14.7 µM [inhibitor, partial curve, poor fit]"

# The listing continues:

row,SMILES,Potency
1,CCn1c(=O)c2ccccc2n(CC(=O)N2CCCc3ccccc32)c1=O,"inconclusive: 13.1 µM [inhibitor, single point]"
2,O=C1N/C(=N/N=C/c2ccco2)SC1Cc1ccccc1 (stereo not given),inactive
3,COc1ccc(OC)c(/C=N\NC(=O)CC(=O)NCCc2ccccc2)c1,"inconclusive: 11.7 µM [inhibitor, single point]"
4,O=C1CCN(Cc2ccccc2)S(=O)(=O)c2ccccc21,"inconclusive: 16.5 µM [inhibitor, single point]"
5,CC(C)OC(=O)Nc1ccc(-c2ccc(NC(=O)OC(C)C)cc2Cl)c(Cl)c1,inactive
6,Cc1ccc(C(C)NC(=O)/C(C#N)=C\c2c(C)[nH]c3ccccc23)cc1 (stereo not given),"inconclusive: 18.5 µM [inhibitor, single point]"
7,CC(=O)c1cccc(NC(=O)c2cc(C)nn2-c2ccccc2)c1,inactive
8,COc1ccc(-n2nc(C(=O)NCC(=O)NCCCN3CCC(C)CC3)c3ccccc3c2=O)cc1Cl,"inconclusive: 4.65 µM [inhibitor, partial curve]"
9,O=C(COC(=O)C1CCCCC1)Nc1ccc(N2CCCCC2)cc1,"inconclusive: 1.65 µM [inhibitor, single point]"
10,COc1cccc(N2CCN(S(=O)(=O)c3c(C)[nH]c(C)c3C(=O)N3CCCC3)CC2)c1,"inconclusive: 18.5 µM [inhibitor, single point]"
12,COc1ccc(N2CCN(C(=O)NCc3cccc(OC)c3)CC2)cc1,inactive
13,O=C(N/N=C1/CC2CCC1C2)c1cc2ccccc2cc1O (stereo not given),active: 9.28 µM
14,Cc1cccn2c(=O)c(C=C(C#N)C#N)c(N3CCN(c4ccccc4)CC3)nc12,"inconclusive: 8.28 µM [inhibitor, partial curve, poor fit]"
15,COc1ccc(-c2cc(N)n(CCC#N)n2)c(OC)c1,"inconclusive: 10.4 µM [inhibitor, partial curve, poor fit]"
16,CN(C)S(=O)(=O)c1cccc(NC(=O)COC(=O)CCC(=O)c2ccc(F)cc2)c1,inactive
17,COc1cc(/C=C/C(=O)OCC(=O)Nc2cccc(Oc3ccccc3)c2)ccc1O,"inconclusive: 18.5 µM [inhibitor, single point]"
18,O=C(N/N=C1/CC2C=CCC12)c1ccco1 (stereo not given),inactive
19,COc1cc(NC(=S)NCc2cccnc2)c(OC)cc1Cl,active: 11.7 µM
20,Cc1cccc2cc(COC(=O)c3ccccc3)c(=O)[nH]c12,inactive
21,Cc1nn(-c2ccccc2)c(Cl)c1C1C(C#N)=C(N)Oc2c1c(C)nn2-c1ccccc1 (stereo not given),active: 10.4 µM
22,C[C@@H]1C=C[C@](Cc2ccccc2)(C(=O)NCC2CC2)N1C(=O)c1ccccc1,"inconclusive: 18.5 µM [inhibitor, single point]"
23,CCOC(=O)c1sc2nc(SCC(=O)NCc3ccco3)n(Cc3ccccc3)c(=O)c2c1C,inactive
24,O=C(NCC(c1cccs1)N1CCOCC1)c1ccc(Cl)c(S(=O)(=O)N2CCOCC2)c1 (stereo not given),"inconclusive: 1.17 µM [inhibitor, partial curve, poor fit]"

row,SMILES,Potency
1,COc1ccc(C(=O)Nc2cc(C)on2)cc1[N+](=O)[O-],inactive
2,Cc1ccc(OCC(=O)Nc2ccc(Cl)cc2)c(-n2nc3ccccc3n2)c1,inactive
3,CCOc1ccc(NS(=O)(=O)c2ccc(-c3cnc(C4CC4)o3)cc2)cc1,"inconclusive: 18.5 µM [inhibitor, single point]"
4,COc1cccc(-c2nnc(Nc3nc4c(F)cccc4s3)o2)c1,"inconclusive: 9.28 µM [inhibitor, single point]"
5,CCOC(=O)C1CCN(C(=O)c2cccc(S(=O)(=O)N(CC)c3ccccc3)c2)CC1,"inconclusive: 9.28 µM [inhibitor, single point]"
6,CCC1=NN2C(=N)/C(=C/c3ccc(OS(=O)(=O)c4ccccc4)c(OC)c3)C(=O)N=C2S1,"inconclusive: 10.4 µM [inhibitor, single point]"
7,COc1cccc(-c2nnc(NC(=O)c3ccc(S(=O)(=O)N(CC(C)C)CC(C)C)cc3)o2)c1,active: 1.65 µM
8,CCOC(=O)c1ccc(NC(=O)Cn2ccc([N+](=O)[O-])n2)cc1,"inconclusive: 2.94 µM [inhibitor, single point]"
9,CN(C)S(=O)(=O)c1cccc(NC(=O)c2cccc(S(=O)(=O)N3CCCCC3)c2)c1,"inconclusive: 9.28 µM [inhibitor, single point]"
10,O=C(NN1CCOCC1)c1cccc(COc2cccc(Br)c2)c1,"inconclusive: 10.4 µM [inhibitor, single point]"
11,CCOC(=O)C1CCN(C(=O)CCCn2c(=O)c3cccn3c3cccnc32)CC1,"inconclusive: 18.5 µM [inhibitor, single point]"
12,O=c1[nH]c2ccccc2nc1-c1c[nH]c2ccccc12,"inconclusive: 18.5 µM [inhibitor, single point]"
13,CCCCCC1CCC(C(=O)NNC(=S)NCC)CC1 (stereo not given),"inconclusive: 14.7 µM [inhibitor, single point]"
14,CC1=C(C(=O)Nc2ccccn2)C(c2ccccc2Cl)NC(=S)N1 (stereo not given),"inconclusive: 0.657 µM [inhibitor, full curve, poor fit]"
15,CC1=CC(C)C2(CO)COC(c3ccc(O)cc3)C1C2C (stereo not given),"inconclusive: 13.1 µM [inhibitor, single point]"
16,CCCCN(CCCC)CCNC(=O)c1cn(CC)c2ccc(S(=O)(=O)N3CCc4ccccc4C3)cc2c1=O,inactive
17,COc1ccc(CC(=O)NNC(=S)Nc2ccccc2)cc1Cl,"inconclusive: 11.7 µM [inhibitor, single point]"
18,Cc1ccc(C2(c3noc(CN4CCOCC4)n3)CCCC2)cc1,"inconclusive: 20.8 µM [inhibitor, single point]"
19,COc1cccc(CN(C)C(=O)c2cc(COc3ccc4ncccc4c3)on2)c1,inactive
20,COc1ccccc1-c1cc(-c2ccccc2)nc(=O)[nH]1,"inconclusive: 4.15 µM [inhibitor, partial curve]"
21,COC(=O)C1=C2SC(C)C(=O)N2C(N)=C(C#N)C1c1ccc(OC)c(OC)c1 (stereo not given),"inconclusive: 18.5 µM [inhibitor, single point]"
22,NC(=O)C1CCN(c2nc(-c3ccccc3Br)cs2)CC1,"inconclusive: 3.7 µM [activator, full curve, poor fit]"
